Reference: PubChem BioAssay AID248 (DTP/NCI, 2004)
The list shows only some results of the screen, not a fair sample: it gathers tests that were run many times, whatever their T/C, doses with no T/C, and many T/C values between a quarter and a half above the control. Other doses and runs of a compound stand elsewhere. T/C: endpoint of the treated group in % of that of the vehicle group. Some doses have a count of surviving animals in place of a T/C: the source files T/C as zero there, which appears to mark a toxic dose or a test without result, not a measured value. Some doses without a T/C left all or most animals alive at the check, yet need not have been tolerated: survival well below the control is almost never listed, so the zero probably covers shortened survival too. Counts of survivors are from the toxicity check (mostly the fifth day) where no day follows; animals may have died later. Schedules are NCI's codes, taken here to give the interval after Q, in days (D) or hours (H), and the number of doses after X. Some schedules carry Z or #; the key to these is not given. For survival time, this PubChem deposit counts one and a half times the control or more as active, and values a quarter to a half above the control carry no call in these data; other NCI protocols may use other cut-offs. Some T/C values are followed by the survivors on the day toxicity was checked, most often the fifth; without a count, all were alive then.

System: L1210 leukemia ip in BDF1 mice, survival T/C
Assay: NCI In Vivo Anticancer Drug Screen. Data for tumor model L1210 Leukemia (intraperitoneal) in B6D2F1 (BDF1) mice
Settings: T/C endpoint: mean survival time, higher T/C = longer survival
[1] = dose: 400.0 mg/kg/injection, schedule: Q04DX003 (ip), vehicle: saline with Tween-80
[2] = dose: 100.0 mg/kg/injection, schedule: Q01DX001 (ip), vehicle: saline
[3] = dose: 200.0 mg/kg/injection, schedule: Q01DX001 (ip), vehicle: saline
[4] = dose: 400.0 mg/kg/injection, schedule: Q01DX001 (ip), vehicle: saline
[5] = dose: 400.0 mg/kg/injection, schedule: Q01DX009 (ip), vehicle: Klucel (hydroxypropylcellulose) (HPC)
[6] = dose: 200.0 mg/kg/injection, schedule: Q04DX002 (ip), vehicle: saline with Tween-80
[7] = dose: 400.0 mg/kg/injection, schedule: Q04DX002 (ip), vehicle: saline with Tween-80
[8] = dose: 300.0 mg/kg/injection, schedule: Q01DX001 (ip), vehicle: carboxymethylcellulose (CMC)
[9] = dose: 100.0 mg/kg/injection, schedule: Q01DX001 (ip), vehicle: Klucel (hydroxypropylcellulose) (HPC)
[10] = dose: 200.0 mg/kg/injection, schedule: Q01DX009 (ip), vehicle: saline
[11] = dose: 20.0 mg/kg/injection, schedule: Q01DX001 (ip), vehicle: saline
[12] = dose: 40.0 mg/kg/injection, schedule: Q01DX001 (ip), vehicle: saline
[13] = dose: 80.0 mg/kg/injection, schedule: Q01DX001 (ip), vehicle: saline
[14] = dose: 400.0 mg/kg/injection, schedule: Q04DX003 (ip), vehicle: saline

`C(=C\n1ccnc1)/c1ccccc1` was tested, and the survivor count (dose: 400.0 mg/kg/injection, schedule: Q04DX003 (ip), vehicle: gum acacia) was 0 of 6.

With `CN(C)C=Nc1ccc(Cl)c(Cl)c1` the survivor count (dose: 200.0 mg/kg/injection, schedule: Q04DX003 (ip), vehicle: saline with Tween-80) was 0 of 6 and the survivor count [1] was 0 of 6.

In the case of `NC(N)=NC(N)=Nc1ccccc1CS`, the survivor count (dose: 300.0 mg/kg/injection, schedule: Q01DX001 (ip), vehicle: saline) is reported as 0 of 6.

For `CC[N+](CC)(CCO)CCCCCCCCCC[N+](CC)(CC)CCO`, the survivor count [2] was 1 of 6, the survivor count [3] was 0 of 6 and the survivor count [4] was 0 of 6.

For `COc1c(O)cc2oc3cc(O)c(CC=C(C)C)c(O)c3c(=O)c2c1CC=C(C)C`, the survivor count (dose: 200.0 mg/kg/injection, schedule: Q01DX009 (ip), vehicle: Klucel (hydroxypropylcellulose) (HPC)) was 6 of 6 and the survivor count [5] was 6 of 6.

With `O=C1CCC2C1CC1CC3C(=O)CCC3C12` (stereo unspecified) the survivor count [6] was 2 of 3 and the survivor count [7] was 0 of 3.

In the case of `CCOC(=O)c1cc(C=O)nc2c(Cl)cc(Cl)cc12`, the survivor count (dose: 400.0 mg/kg/injection, schedule: Q01DX009 (ip), vehicle: saline with Tween-80) is reported as 3 of 6.

For `CC(C)c1cccc(O)c(=O)c1`, the survivor count [1] was 0 of 6.

In the case of `COc1cc(C=Nc2ccc(Cl)cc2)ccc1N(CCCl)CCCl`, the survivor count (dose: 60.0 mg/kg/injection, schedule: Q01DX015 (ip), vehicle: carboxymethylcellulose (CMC)) is reported as 5 of 6, the T/C (dose: 89.0 mg/kg/injection, schedule: Q01DX001 (ip), vehicle: carboxymethylcellulose (CMC)) is reported as 125 % of control [3 of 4 alive] and the survivor count (dose: 100.0 mg/kg/injection, schedule: Q01DX015 (ip), vehicle: carboxymethylcellulose (CMC)) is reported as 0 of 6. The T/C (dose: 200.0 mg/kg/injection, schedule: Q01DX001 (ip), vehicle: carboxymethylcellulose (CMC)) was 147 % of control, the survivor count [8] was 0 of 4 and the survivor count (dose: 400.0 mg/kg/injection, schedule: Q01DX001 (ip), vehicle: carboxymethylcellulose (CMC)) was 1 of 4.

In the case of `CCCCCCC/C(=N\N=C(N)N)c1ccc(O)cc1`, the survivor count (dose: 60.0 mg/kg/injection, schedule: Q01DX Z (ip), vehicle: carboxymethylcellulose (CMC)) is reported as 3 of 6, the survivor count (dose: 120.0 mg/kg/injection, schedule: Q01DX Z (ip), vehicle: carboxymethylcellulose (CMC)) is reported as 0 of 6 and the survivor count (dose: 120.0 mg/kg/injection, schedule: Q01DX Z (oral), vehicle: carboxymethylcellulose (CMC)) is reported as 6 of 6. The survivor count (dose: 960.0 mg/kg/injection, schedule: Q01DX Z (oral), vehicle: carboxymethylcellulose (CMC)) was 6 of 6.

For `CCC1COC(=S)N1` (stereo unspecified), the survivor count (dose: 25.0 mg/kg/injection, schedule: Q01DX009 (ip), vehicle: saline) was 0 of 6, the survivor count (dose: 50.0 mg/kg/injection, schedule: Q04DX002 (ip), vehicle: saline with Tween-80) was 0 of 3 and the survivor count (dose: 75.0 mg/kg/injection, schedule: Q01DX001 (ip), vehicle: Klucel (hydroxypropylcellulose) (HPC)) was 0 of 6. The survivor count (dose: 100.0 mg/kg/injection, schedule: Q04DX002 (ip), vehicle: saline with Tween-80) was 0 of 3, the survivor count (dose: 150.0 mg/kg/injection, schedule: Q01DX001 (ip), vehicle: Klucel (hydroxypropylcellulose) (HPC)) was 0 of 6 and the survivor count [6] was 0 of 3. The survivor count (dose: 300.0 mg/kg/injection, schedule: Q01DX001 (ip), vehicle: Klucel (hydroxypropylcellulose) (HPC)) was 0 of 6 and the survivor count [7] was 0 of 3.

With `CC(=O)Nc1nc(C)c(CCCN(c2ccccc2)S(=O)(=O)c2ccc(N)cc2)c(=O)[nH]1` the survivor count [9] was 6 of 6 and the survivor count (dose: 400.0 mg/kg/injection, schedule: Q01DX001 (ip), vehicle: Klucel (hydroxypropylcellulose) (HPC)) was 6 of 6.

In the case of `CN(C)CCN(C(=O)c1ccc(N)cc1)c1ccccc1`, the survivor count [10] is reported as 0 of 3.

In the case of `Cc1cccc(C(=O)O)n1.[Cu+2]`, the survivor count [11] is reported as 2 of 4, the survivor count [12] is reported as 0 of 4 and the survivor count [13] is reported as 0 of 4. The survivor count [2] was 0 of 4, the survivor count [3] was 0 of 4 and the survivor count [4] was 0 of 4.

`CN1CCCC2C3=CC=C4CC(O)CCC4(C)C3CCC21C` (stereo unspecified) was tested, and the survivor count [8] was 0 of 6.

For `CC(C)(C)C1CCC(N=C(N)CSS(=O)(=O)O)CC1` (stereo unspecified), the survivor count (dose: 50.0 mg/kg/injection, schedule: Q04DX002 (ip), vehicle: Klucel (hydroxypropylcellulose) (HPC)) was 0 of 3, the survivor count (dose: 100.0 mg/kg/injection, schedule: Q04DX002 (ip), vehicle: Klucel (hydroxypropylcellulose) (HPC)) was 0 of 3 and the survivor count (dose: 200.0 mg/kg/injection, schedule: Q04DX002 (ip), vehicle: Klucel (hydroxypropylcellulose) (HPC)) was 0 of 3. The survivor count (dose: 400.0 mg/kg/injection, schedule: Q04DX002 (ip), vehicle: Klucel (hydroxypropylcellulose) (HPC)) was 0 of 3.

With `CN(N)C(=S)c1ccc(Cl)cc1` the survivor count [4] was 3 of 6.

`CCN(CC)CCOc1ccc(Br)cc1` was tested, and the survivor count [10] was 2 of 6, the survivor count (dose: 200.0 mg/kg/injection, schedule: Q04DX003 (ip), vehicle: saline) was 2 of 6 and the survivor count [14] was 0 of 6.

For `C1=Cc2c3c(c4c(c2C1)C=CC4)CC=C3`, the survivor count [9] was 6 of 6.

With `CCOc1ccc2nc(/C=C/c3ccccc3)ccc2c1` the survivor count (dose: 100.0 mg/kg/injection, schedule: Q01DX001 (ip), vehicle: carboxymethylcellulose (CMC)) was 6 of 6.

In the case of `CCOP(=O)(CSCCc1ccccc1)OCC`, the survivor count [14] is reported as 0 of 6.

For `CC(CO)(CO)N1C(=O)c2cccc3cc([N+](=O)[O-])cc(c23)C1=O`, the survivor count [5] was 2 of 6.

In the case of `O=c1ccc2c([nH]1)CCC2`, the survivor count (dose: 200.0 mg/kg/injection, schedule: Q04DX003 (ip), vehicle: Klucel (hydroxypropylcellulose) (HPC)) is reported as 6 of 6 and the survivor count (dose: 400.0 mg/kg/injection, schedule: Q04DX003 (ip), vehicle: Klucel (hydroxypropylcellulose) (HPC)) is reported as 0 of 6.

For `CCC(C)C(C=NCC(CCN(C)C)(c1ccc2ccccc2c1)C(C)CC)(CCN(C)C)c1ccc2ccccc2c1` (stereo unspecified), the survivor count (dose: 6.25 mg/kg/injection, schedule: Q04DX002 (ip), vehicle: saline with Tween-80) was 3 of 3, the survivor count (dose: 25.0 mg/kg/injection, schedule: Q04DX002 (ip), vehicle: saline with Tween-80) was 3 of 3 and the survivor count (dose: 50.0 mg/kg/injection, schedule: Q04DX002 (ip), vehicle: saline + alcohol) was 3 of 3. For the same compound, the survivor count (dose: 100.0 mg/kg/injection, schedule: Q04DX002 (ip), vehicle: saline + alcohol) was 0 of 3, the survivor count (dose: 200.0 mg/kg/injection, schedule: Q04DX002 (ip), vehicle: saline + alcohol) was 1 of 3 and the survivor count (dose: 400.0 mg/kg/injection, schedule: Q04DX002 (ip), vehicle: saline + alcohol) was 2 of 3.

For `C/C(=C/C1CC(=O)OC1=O)CC(C)(C)C` (stereo unspecified), the survivor count (dose: 500.0 mg/kg/injection, schedule: Q01DX Z (ip), vehicle: methylcellulose (MC)) was 3 of 6.

In the case of `CCOC(=O)C(O)c1cccc(OC)c1` (stereo unspecified), the survivor count (dose: 200.0 mg/kg/injection, schedule: Q01DX009 (ip), vehicle: saline sonified) is reported as 6 of 6.

For `CC(=O)Oc1cc(OC(C)=O)c2c(OC(C)=O)c3c(OC(C)=O)cc(C)cc3cc2c1`, the survivor count [11] was 1 of 6, the survivor count [12] was 0 of 6 and the survivor count [13] was 0 of 6.

`CC(NC(=O)c1ccccc1)C(=O)NC(CSC(c1ccccc1)c1ccccc1)C(=O)O` (stereo unspecified) was tested, and the survivor count [10] was 0 of 6, the survivor count (dose: 400.0 mg/kg/injection, schedule: Q01DX009 (ip), vehicle: saline) was 4 of 6 and the survivor count [14] was 3 of 6.

For `CSCSCC(CO)NCc1ccccc1` (stereo unspecified), the survivor count [10] was 1 of 6 and the survivor count [4] was 0 of 6.
